Results are given in words; binding and its absence hold for the method and conditions named.
Columns and labels:
[1] = target: SUMO1-vinylsulfone (UniProt P63165); test: covalent adduct formation with electrophilic (activity-based) probes, reducing SDS-PAGE and fluorography; only the target purified
[2] = target: ISG15-vinylsulfone (UniProt P05161); test: as above

The chains behind the UniProt entries cited, without tags or fusion partners. Residues count along the entry.
UniProt P63165, residues 1-97: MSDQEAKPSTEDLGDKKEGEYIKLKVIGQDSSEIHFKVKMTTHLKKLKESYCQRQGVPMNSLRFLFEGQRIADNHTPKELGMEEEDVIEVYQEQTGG
UniProt P05161, residues 1-157: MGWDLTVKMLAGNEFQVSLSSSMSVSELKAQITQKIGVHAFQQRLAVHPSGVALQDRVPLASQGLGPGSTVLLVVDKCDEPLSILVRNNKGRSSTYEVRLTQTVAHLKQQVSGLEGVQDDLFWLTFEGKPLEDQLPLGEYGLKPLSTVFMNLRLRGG

B1: elaD (wildtype), 35S-methionine-labeled, in vitro translated (enzyme, UniProt Q47013 1-403)
chain: MMVTVVSNYCQLSQTQLSQTFAEKFTVTEELLQSLKKTALSGDEESIELLHNIALGYDKFGKEAEDILYHIVRTPTNETLSIIRLIKNACLKLYNLAHIATNSPLKSHDSDDLLFKKLFSPSKLMTIIGDEIPLISEKQSLSKVLLNDENNELSDGTNFWDKNRQLTTDEIACYLQKIAANAKNTQVNYPTGLYVPYSTRTHLEDALNENIKSDPSWPNEVQLFPINTGGHWILVSLQKIVNKKNNKLQIKCVIFNSLRALGYDKENSLKRVINSFNSELMGEMSNNNIKVHLNEPEIIFLHADLQQYLSQSCGAFVCMAAQEVIEQRESNSDSAPYTLLKNHADRFKKYSAEEQYEIDFQHRLANRNCYLDKYGDANINHYYRNLEIKHSQPKNRASGKRVS
modifications: 35S-methionine label
In the case of B1, the binding [1] is reported as “no binding (tested: 0.1 µg of probe)” and the binding [2] is reported as “no binding (tested: 0.1 µg of probe)”.

— paper PMC1847702
